Measured values published in PubChem BioAssay AID2685 (National Center for Advancing Translational Sciences (NCATS), 2010).
The other results are listed elsewhere or left out. Further columns of the screen follow, without active or inactive calls. Compounds called inactive in the main read-out are mostly missing here. Potencies come from curve fits of mixed quality, noted in brackets.

Assay: qHTS Assay for Lipid Storage Modulators in Drosophila S3 Cells;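 on cell number change: cells counted by Cell Tracker Red CMTPX staining in the red channel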
Conditions: BODIPY lipid droplet fluorescence, 18-24 h; for cell number change: measured here: cell count max response, cells fed with added oleic acid
Summary of the method: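 Drosophila S3 cells got compounds at several concentrations plus oleic acid (400 uM solution). Laser-scanning cytometry with 488 nm excitation read lipid droplets at 500-530 nm and cells at 575-640 nm. Percent activity was relative to 20 uM Triacsin C.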

[1] = measured here: cell number channel AC50, cells fed with added oleic acid
[2] = measured here: lipid fluorescence (Fed channel) AC50, cells fed with added oleic acid

Structure (SMILES) | cell number change | AC50 [1] | AC50 [2]
COc1ccccc1CN(C)C(=O)c1cccc(S(=O)(=O)N2CCN(Cc3ccccc3)CC2)c1 | 72.7% | 8.2 µM [rising, partial curve] | –
Cc1[nH]n(-c2ccc(Cl)cc2)c(=O)c1C=Nc1ccc(S(=O)(=O)N2CCOCC2)cc1 | -29.5% | 0.206 µM [falling, full curve] | 2.06 µM [falling, partial curve]
CCC(C)Sc1cc(C)c(C#N)c2nc3ccccc3n12 (centres undefined) | 83.3% | 6.51 µM [falling, single point] | –
CC(C)c1ccc(NC(=O)CCCC(=O)NCCc2ccccc2)cc1 | -8.11% | – | –
O=C(COC(=O)c1cc([N+](=O)[O-])ccc1N1CCOCC1)c1ccc(Br)cc1 | -16.6% | – | –
Cc1cc(Nc2ccc(F)cc2)n2nc(C)nc2n1 | 13.8% | – | 6.51 µM [rising, single point]
Nc1ccccc1C(=O)N/N=C1\C2CN3CCN(C2)CC1(c1ccccc1)C3 | -4.9% | – | 29.1 µM [falling, partial curve]
O=C(Nc1ccc([N+](=O)[O-])cn1)C1CC2CCC1C2 (centres undefined) | 14.9% | – | 8.2 µM [rising, partial curve, poor fit]
O=C(Nc1ccccc1NS(=O)(=O)c1ccc(F)cc1)C1CCCC1 | -13.8% | 1.84 µM [rising, partial curve, poor fit] | 0.651 µM [rising, full curve, poor fit]
COc1ccc(CCNC(=O)c2cc(-c3ccncc3)nc3ccc(S(=O)(=O)N4CCOCC4)cc23)cc1OC | 1.49% | – | 5.17 µM [rising, full curve, poor fit]
COc1ccc([C@@H]2CC=C(C(=O)O)[C@H](c3ccc(F)cc3)N2S(=O)(=O)c2ccc(C)cc2)cc1OC | 10.2% | 0.0651 µM [rising, full curve, poor fit] | 16.4 µM [rising, single point]
CN1C(=O)C2CN(CCc3ccccc3)CNC2N(C)C1=O (centres undefined) | 0.68% | – | 0.259 µM [falling, full curve, poor fit]
COc1ccccc1NC(=O)C(=O)NCCC1CCCCN1S(=O)(=O)c1ccccc1 (centres undefined) | -27.6% | – | –
CCOC(=O)c1c(NC(=O)CN2CCN(C(=O)c3ccco3)CC2)sc2c1CCCC2 | -60.2% | 20.6 µM [falling, single point] | 23.1 µM [falling, single point]
CCOC(=O)c1c(NC(=O)CSc2nnnn2-c2ccc(OC)cc2)sc(C)c1C | – | 3.26 µM [rising, single point] | 5.17 µM [rising, single point]
CC1CC(C)CN(C(=O)c2ccc3c(c2NCCO)C(=O)c2ccccc2C3=O)C1 (centres undefined) | -27.2% | 3.66 µM [falling, full curve, poor fit] | 3.66 µM [falling, full curve]
COc1cccc(CN2CCCC(C(=O)N3CCCCC3)C2)c1 (centres undefined) | 42.3% | 0.651 µM [rising, full curve] | 6.51 µM [rising, single point]
Cc1ccc(C(=O)N/N=C\c2ccc([N+](=O)[O-])o2)cn1 | 6.21% | – | 16.4 µM [falling, single point]
Cc1ccc(S(=O)(=O)N2CCN(Cc3ccccc3C(F)(F)F)CC2)cc1 | 15.5% | – | –
CCCn1cc(S(=O)(=O)c2ccc(F)cc2)c(=O)c2cc(OCC)ccc21 | -42.2% | 1.64 µM [falling, partial curve] | 29.1 µM [falling, single point]
CCOc1ccc(N2C(=O)/C(=C\c3ccccc3OC)S(=O)(=O)C2c2cccc([N+](=O)[O-])c2)cc1 (centres undefined) | 18.5% | – | 0.82 µM [rising, single point]
Cc1cc(C(=O)Nc2ccccc2Cl)c2ccccc2n1 | 10.5% | – | 20.6 µM [rising, single point]
COc1cc(/C=N/NC(=O)c2cc3c(ccc4ccccc43)o2)cc(OC)c1O | -16.4% | – | 20.6 µM [falling, single point]
CCCNCc1nnc(-c2ccccc2Cl)o1 | -9% | – | 13 µM [rising, single point]
COCc1c(C(=O)N/N=C/C2CC=CCC2)nnn1-c1nonc1N (centres undefined) | 16.7% | – | 18.4 µM [rising, single point]
COc1ccc(CNS(=O)(=O)c2ccc(-n3cnnn3)c(C)c2)cc1 | – | – | 29.1 µM [falling, single point]
CC1CCCC/C1=N\NC(=S)NCCc1ccccc1 (centres undefined) | 1.77% | – | 6.51 µM [rising, single point]
CC(C)(CCl)C(=O)Nc1ccc(Sc2ccc(F)cc2)cc1 | -60% | 14.6 µM [falling, partial curve, poor fit] | 16.4 µM [falling, partial curve]

One compound at a time, from the list above:
CC(C)(CCl)C(=O)Nc1ccc(Sc2ccc(F)cc2)cc1 in the list: cell number change: -60%; AC50 [1]: 14.6 µM [falling, partial curve, poor fit]; AC50 [2]: 16.4 µM [falling, partial curve]
CC(C)c1ccc(NC(=O)CCCC(=O)NCCc2ccccc2)cc1 in the list: cell number change: -8.11%
COc1ccc([C@@H]2CC=C(C(=O)O)[C@H](c3ccc(F)cc3)N2S(=O)(=O)c2ccc(C)cc2)cc1OC in the list: cell number change: 10.2%; AC50 [1]: 0.0651 µM [rising, full curve, poor fit]; AC50 [2]: 16.4 µM [rising, single point]

(more compounds)

Structure (SMILES) | cell number change | AC50 [1] | AC50 [2]
S=C(NC1CCCCC1)N1CCN(C/C=C/c2ccccc2)CC1 | -3.88% | 0.103 µM [falling, full curve, poor fit] | 14.6 µM [falling, partial curve]
CCCC(=O)Nc1nnc(/C=C/c2ccccc2)s1 | -41.2% | 0.13 µM [falling, full curve, poor fit] | –
CCOC(=O)c1cc2sccc2n1Cc1ccccc1 | -20% | – | 0.082 µM [rising, full curve, poor fit]
O=C(CCCn1cnc([N+](=O)[O-])n1)Nc1cccc(O)c1 | – | 0.517 µM [falling, single point] | 0.731 µM [falling, full curve, poor fit]
N#C/C(=C\c1ccccc1)C(=O)Nc1nncs1 | -41.5% | 16.4 µM [falling, single point] | 20.6 µM [falling, single point]
O=C(NNS(=O)(=O)c1ccc(Cl)cc1)c1cc(-c2ccccc2)n[nH]1 | 3.14% | – | 2.59 µM [rising, partial curve]
COc1ccc(/C(C)=N/OCC(=O)Nc2nc3ccccc3s2)cc1 | 30.4% | 7.31 µM [rising, partial curve, poor fit] | –
O=C(NC(=S)NCCc1ccccc1)c1ccccc1F | -8.8% | – | 20.6 µM [falling, single point]
Cc1cccc(-c2cc(C(=O)Nc3c(C)n(C)n(-c4ccccc4)c3=O)c3ccccc3n2)c1 | 19.4% | – | 29.1 µM [rising, single point]
CC(C)CNC(=O)NC(=O)COC(=O)c1cc([N+](=O)[O-])ccc1NCc1ccccc1Cl | 13.4% | 2.31 µM [falling, partial curve] | 6.51 µM [falling, single point]
NC(=S)N/N=C1/CCSc2ccc3ccccc3c21 | -51.3% | 32.6 µM [falling, single point] | 16.4 µM [falling, single point]
CCn1c(COc2ccc(=O)n(-c3ccccc3)n2)nnc1SCc1ccccc1 | 88.7% | – | 20.6 µM [rising, partial curve]
O=C(COC(=O)CCC(=O)c1ccccc1)NNC(=O)c1ccc(Cl)cc1 | 4.4% | 6.51 µM [falling, single point] | –
COCCn1c(SCC(=O)N2CCN(c3ccccc3)CC2)nc2c(c1=O)SC(C)C2 (centres undefined) | 16.5% | 1.64 µM [rising, single point] | 0.517 µM [rising, partial curve]
COc1ccc(CNC(=O)C2C3C=CC4(CN(Cc5cccnc5)C(=O)C24)O3)cc1 (centres undefined) | 12.8% | – | 6.51 µM [rising, single point]
O=C(Nc1ccc(F)c(Cl)c1)C1CCN(S(=O)(=O)c2cccnc2)CC1 | – | – | 0.411 µM [rising, full curve, poor fit]
COc1ccc2c(c1)Cc1sc(NC(=O)c3ccccc3)nc1-2 | 1.64% | 3.26 µM [rising, single point] | 1.3 µM [rising, partial curve]
CCc1nnc(NC(=O)CSc2nnc3nc(C)cc(C)n23)s1 | 14.1% | – | 0.116 µM [rising, partial curve, poor fit]
Cc1ccc(-c2csc(NC(=O)CSC3=NCCS3)n2)cc1 | -44.1% | 29.1 µM [falling, single point] | 16.4 µM [falling, single point]
CCCCCC(=O)Nc1ccc(C(=O)CN2C(=O)NC3(CCCCCC3)C2=O)cc1 | 56.5% | – | –
Fc1ccccc1/C=N/Nc1ncnc2ccccc12 | 22.7% | – | –
COc1ccccc1NC(=O)c1ccc(NC(=O)c2nc3nccc(C)n3n2)cc1 | -1.3% | – | –
COc1ccc(-c2c(C)nn3c(N4CCN(Cc5ccccc5)CC4)cc(C)nc23)cc1OC | – | – | 8.2 µM [rising, partial curve, poor fit]
CCOC(=O)N1CCC(Nc2c(NCCN3CCN(c4ccccc4F)CC3)c(=O)c2=O)CC1 | -5.89% | – | 1.03 µM [falling, partial curve, poor fit]
Cc1ccc(C2(C)NC(=O)N(CC(=O)NCc3ccccc3Cl)C2=O)cc1 (centres undefined) | – | 0.731 µM [rising, single point] | 0.58 µM [rising, single point]
COc1ccccc1OCCNC(=O)C1CC(=O)N(c2cccc(SC)c2)C1 (centres undefined) | – | 0.731 µM [rising, partial curve] | –
O=C1C2C3C=CC(CC3)C2C(=O)N1c1ccc(Cl)cc1 (centres undefined) | -8.39% | – | 6.51 µM [rising, single point]
